Data as given in PubChem BioAssay AID504774 (Drosophila RNAi Screening Center, 2011)
The screen tested about 23,000 reagents; shown is an unselected part of those with a known target gene and a result. 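Values are quantile-normalised luminescence on an arbitrary scale; higher means more cells surviving MMS.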 Names joined by + are all predicted targets of the reagent.

- Assay: 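Knock-downs that shift viability of MMS-exposed cells relative to untreated ones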 (primary screen)
- System: Drosophila Kc167 cells
- Reagents: long dsRNA against Drosophila genes, about 0.25 µg dsRNA per well
- Time to read-out: about 6 days: 3 days knock-down, then 3 days with or without MMS
- Conditions: methyl methanesulphonate 0.004% (w/v) for 3 days after knock-down
- Detection: 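Viability in wells given MMS, read as ATP luminescence, normalised by quantiles plate by plate and averaged across replicates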
- Direction: mean viability with MMS and viability with MMS: higher = more surviving cells after MMS

| gene | dsRNA | mean viability with MMS | viability with MMS, replicate 1 | viability with MMS, replicate 2 |
| --- | --- | --- | --- | --- |
| knrl (GeneID 40285) | DRSC11892 | 3.68e6 | 4.15e6 | 4.15e6 |
| knrl (GeneID 40285) | DRSC23245 | 1.90e6 | 2.20e6 | 1.44e6 |
| CG14628 (GeneID 31057) | DRSC18626 | 3.67e6 | 4.09e6 | 4.22e6 |
| drongo (GeneID 33263) | DRSC00814 | 3.44e6 | 3.78e6 | 3.94e6 |
| Fpps (GeneID 36209) | DRSC07429 | 3.50e6 | 4.04e6 | 3.87e6 |
| CG12375 (GeneID 34106) | DRSC02163 | 3.51e6 | 4.04e6 | 3.91e6 |
| Rim (GeneID 42150) | DRSC16224 | 3.76e6 | 4.10e6 | 4.43e6 |
| Rim (GeneID 42150) | DRSC16225 | 3.07e6 | 3.61e6 | 3.62e6 |
| Rim (GeneID 42150) | DRSC16226 | 3.76e6 | 4.17e6 | 4.28e6 |
| Rim (GeneID 42150) | DRSC16227 | 3.67e6 | 4.16e6 | 4.18e6 |
| Rim (GeneID 42150) | DRSC22406 | 3.55e6 | 4.02e6 | 4.01e6 |
| Glt (GeneID 34193) | DRSC03333 | 3.42e6 | 4.03e6 | 3.69e6 |
| Dbp73D (GeneID 39871) | DRSC11142 | 3.56e6 | 4.12e6 | 3.95e6 |
| CG34458 (GeneID 5740868) | DRSC06925 | 3.58e6 | 4.12e6 | 3.99e6 |
| Nmt (GeneID 38909) | DRSC11236 | 3.46e6 | 3.70e6 | 4.14e6 |
| CG12935 (GeneID 36134) | DRSC06248 | 3.58e6 | 4.07e6 | 4.05e6 |
| Obsc (GeneID 3346201) | DRSC04301 | 1.92e6 | 4.08e6 | – |
| Obsc (GeneID 3346201) | DRSC04302 | 3.44e6 | 4.08e6 | 3.86e6 |
| Obsc (GeneID 3346201) | DRSC04303 | 3.45e6 | 3.84e6 | 3.96e6 |
| Obsc (GeneID 3346201) | DRSC04430 | 3.31e6 | 3.63e6 | 3.74e6 |
| Obsc (GeneID 3346201) | DRSC22422 | 3.75e6 | 4.20e6 | 4.17e6 |
| CG17786 (GeneID 42879) | DRSC15270 | 3.69e6 | 4.26e6 | 4.10e6 |
| CG13192 (GeneID 36259) | DRSC06317 | 3.47e6 | 3.89e6 | 3.97e6 |
| C3G (GeneID 31618) | DRSC17745 | 3.69e6 | 4.03e6 | 4.35e6 |
| C3G (GeneID 31618) | DRSC17929 | 3.91e6 | 4.63e6 | 4.34e6 |
| C3G (GeneID 31618) | DRSC22329 | 3.60e6 | 4.04e6 | 4.09e6 |
| C3G (GeneID 31618) | DRSC23077 | 3.53e6 | 3.92e6 | 4.11e6 |
| RPA2 (GeneID 35364) | DRSC03184 | 3.56e6 | 4.17e6 | 3.88e6 |
| CG42307 + mus312 | DRSC11008 | 3.80e6 | 4.18e6 | 4.40e6 |
| CG13579 (GeneID 37905) | DRSC04215 | 3.47e6 | 3.90e6 | 3.95e6 |
| Spf30 (GeneID 7354399) | DRSC11976 | 3.31e6 | 3.69e6 | 3.77e6 |
| CG8545 (GeneID 36365) | DRSC07210 | 3.53e6 | 3.97e6 | 4.03e6 |
| atos (GeneID 36243) | DRSC07318 | 3.51e6 | 4.02e6 | 4.00e6 |
| GlcAT-S (GeneID 34282) | DRSC02731 | 3.52e6 | 4.11e6 | 3.88e6 |
| lab (GeneID 40817) | DRSC12627 | 3.36e6 | 3.85e6 | 3.82e6 |
| GABA-B-R1 (GeneID 34878) | DRSC22038 | 3.63e6 | 4.11e6 | 4.06e6 |
| CG5199 (GeneID 40265) | DRSC11770 | 3.56e6 | 4.08e6 | 4.00e6 |
| CG17104 (GeneID 34465) | DRSC02573 | 3.37e6 | 3.66e6 | 3.92e6 |
| CG18477 + CG31780 | DRSC01955 | 3.41e6 | 3.81e6 | 3.92e6 |
| Sema1a (GeneID 34192) | DRSC03433 | 3.45e6 | 3.89e6 | 3.90e6 |
| CG46298 (GeneID 36091) | DRSC06222 | 3.34e6 | 3.81e6 | 3.78e6 |
| ZnT49B (GeneID 36393) | DRSC07225 | 3.45e6 | 3.81e6 | 3.96e6 |
| CG14606 (GeneID 40866) | DRSC12550 | 3.63e6 | 4.17e6 | 4.04e6 |
| Argp (GeneID 261628) | DRSC16510 | 3.63e6 | 4.15e6 | 4.10e6 |
| NP15.6 (GeneID 42282) | DRSC16756 | 3.50e6 | 4.08e6 | 3.86e6 |
| Ten-a (GeneID 32183) | DRSC18924 | 3.58e6 | 4.04e6 | 4.07e6 |
| Ten-a (GeneID 32183) | DRSC19496 | 2.72e6 | 3.58e6 | 3.58e6 |
| Ten-a (GeneID 32183) | DRSC19700 | 3.47e6 | 3.96e6 | 3.90e6 |
| Ten-a (GeneID 32183) | DRSC19793 | 3.72e6 | 4.25e6 | 4.13e6 |
| Ten-a (GeneID 32183) | DRSC19864 | 3.51e6 | 4.04e6 | 3.92e6 |
| Ten-a (GeneID 32183) | DRSC19865 | 3.56e6 | 4.11e6 | 3.96e6 |
| Ten-a (GeneID 32183) | DRSC20290 | 3.60e6 | 4.12e6 | 4.02e6 |
| Ten-a (GeneID 32183) | DRSC21461 | 3.46e6 | 3.91e6 | 3.98e6 |
| Ten-a (GeneID 32183) | DRSC23016 | 3.44e6 | 4.07e6 | 3.75e6 |
| CR15280 (GeneID 3885605) | DRSC01953 | 3.53e6 | 3.98e6 | 4.04e6 |
| CG31231 (GeneID 318638) | DRSC13308 | 3.45e6 | 3.88e6 | 3.95e6 |
| Tango6 (GeneID 35155) | DRSC02671 | 3.46e6 | 3.94e6 | 3.87e6 |
| wry (GeneID 33361) | DRSC00352 | 3.36e6 | 3.78e6 | 3.77e6 |
| wry (GeneID 33361) | DRSC00456 | 3.26e6 | 3.66e6 | 3.67e6 |
| wry (GeneID 33361) | DRSC22414 | 3.59e6 | 4.02e6 | 4.07e6 |
| DEF8 (GeneID 39381) | DRSC09840 | 3.53e6 | 4.06e6 | 3.94e6 |
| gudu (GeneID 34014) | DRSC02820 | 3.73e6 | 4.09e6 | 4.26e6 |
| CG9008 (GeneID 34779) | DRSC01889 | 3.58e6 | 3.92e6 | 4.23e6 |
| CG12355 (GeneID 2768954) | DRSC09381 | 1.61e6 | 3.67e6 | 3.89e6 |
| CG12355 (GeneID 2768954) | DRSC09883 | 3.65e6 | 4.03e6 | 4.21e6 |
| CG7840 (GeneID 34136) | DRSC03075 | 3.74e6 | 4.36e6 | 4.16e6 |
| gry (GeneID 38391) | DRSC08028 | 3.48e6 | 3.97e6 | 3.91e6 |
| gry (GeneID 38391) | DRSC08518 | 3.74e6 | 4.19e6 | 4.29e6 |
| CG14187 (GeneID 40199) | DRSC10186 | 3.48e6 | 3.93e6 | 3.93e6 |
| lbm (GeneID 35623) | DRSC07643 | 3.63e6 | 4.12e6 | 4.05e6 |
| CG5087 (GeneID 39035) | DRSC10479 | 3.41e6 | 3.86e6 | 3.86e6 |
| CG11444 (GeneID 31388) | DRSC17784 | 3.52e6 | 3.96e6 | 4.02e6 |
| RabX4 (GeneID 42960) | DRSC22189 | 3.62e6 | 4.05e6 | 4.10e6 |
| Nxt1 (GeneID 37769) | DRSC04630 | 3.29e6 | 3.62e6 | 3.70e6 |
| Gabat (GeneID 40188) | DRSC10846 | 3.48e6 | 3.95e6 | 3.92e6 |
| CG31386 (retired record) (GeneID 318706) | DRSC22769 | 3.40e6 | 3.89e6 | 3.93e6 |
| CG31386 (retired record) (GeneID 318706) | DRSC23186 | 3.57e6 | 4.06e6 | 4.07e6 |
| SA2 (GeneID 38167) | DRSC08385 | 3.69e6 | 4.12e6 | 4.18e6 |
| CG12105 (GeneID 38190) | DRSC08255 | 3.57e6 | 4.10e6 | 3.99e6 |
| ash2 (GeneID 42936) | DRSC16902 | 3.43e6 | 3.93e6 | 3.85e6 |
| Mur82C (GeneID 40574) | DRSC12011 | 3.22e6 | 3.83e6 | 3.75e6 |
| Mur82C (GeneID 40574) | DRSC12212 | 3.64e6 | 4.01e6 | 4.02e6 |
| Gr36a (GeneID 117488) | DRSC22663 | 3.38e6 | 3.89e6 | 3.90e6 |
| CG10417 (GeneID 35492) | DRSC04846 | 3.19e6 | 4.04e6 | 3.80e6 |
| Nacalpha (GeneID 36409) | DRSC07477 | 3.23e6 | 3.72e6 | 3.69e6 |
| CG14383 (GeneID 41593) | DRSC14841 | 3.38e6 | 3.78e6 | 3.86e6 |
| ATPsynD (GeneID 42291) | DRSC14093 | 3.52e6 | 4.03e6 | 3.95e6 |

Laid out differently: results already given
CG13579 (GeneID 37905) [DRSC04215]
- mean viability with MMS: 3.47e6
- viability with MMS, replicate 1: 3.90e6
- viability with MMS, replicate 2: 3.95e6

Spf30 (GeneID 7354399) [DRSC11976]
- mean viability with MMS: 3.31e6
- viability with MMS, replicate 1: 3.69e6
- viability with MMS, replicate 2: 3.77e6

CG8545 (GeneID 36365) [DRSC07210]
- mean viability with MMS: 3.53e6
- viability with MMS, replicate 1: 3.97e6
- viability with MMS, replicate 2: 4.03e6

atos (GeneID 36243) [DRSC07318]
- mean viability with MMS: 3.51e6
- viability with MMS, replicate 1: 4.02e6
- viability with MMS, replicate 2: 4.00e6

GlcAT-S (GeneID 34282) [DRSC02731]
- mean viability with MMS: 3.52e6
- viability with MMS, replicate 1: 4.11e6
- viability with MMS, replicate 2: 3.88e6

lab (GeneID 40817) [DRSC12627]
- mean viability with MMS: 3.36e6
- viability with MMS, replicate 1: 3.85e6
- viability with MMS, replicate 2: 3.82e6

GABA-B-R1 (GeneID 34878) [DRSC22038]
- mean viability with MMS: 3.63e6
- viability with MMS, replicate 1: 4.11e6
- viability with MMS, replicate 2: 4.06e6

CG5199 (GeneID 40265) [DRSC11770]
- mean viability with MMS: 3.56e6
- viability with MMS, replicate 1: 4.08e6
- viability with MMS, replicate 2: 4.00e6

CG17104 (GeneID 34465) [DRSC02573]
- mean viability with MMS: 3.37e6
- viability with MMS, replicate 1: 3.66e6
- viability with MMS, replicate 2: 3.92e6

CG18477 + CG31780 [DRSC01955]
- mean viability with MMS: 3.41e6
- viability with MMS, replicate 1: 3.81e6
- viability with MMS, replicate 2: 3.92e6

Sema1a (GeneID 34192) [DRSC03433]
- mean viability with MMS: 3.45e6
- viability with MMS, replicate 1: 3.89e6
- viability with MMS, replicate 2: 3.90e6
